Some of the results follow.

Amino acid sequences for entries named in this document (tags omitted). A change or cut given only in a name is not applied to a line headed by its entry.
UniProt O75054: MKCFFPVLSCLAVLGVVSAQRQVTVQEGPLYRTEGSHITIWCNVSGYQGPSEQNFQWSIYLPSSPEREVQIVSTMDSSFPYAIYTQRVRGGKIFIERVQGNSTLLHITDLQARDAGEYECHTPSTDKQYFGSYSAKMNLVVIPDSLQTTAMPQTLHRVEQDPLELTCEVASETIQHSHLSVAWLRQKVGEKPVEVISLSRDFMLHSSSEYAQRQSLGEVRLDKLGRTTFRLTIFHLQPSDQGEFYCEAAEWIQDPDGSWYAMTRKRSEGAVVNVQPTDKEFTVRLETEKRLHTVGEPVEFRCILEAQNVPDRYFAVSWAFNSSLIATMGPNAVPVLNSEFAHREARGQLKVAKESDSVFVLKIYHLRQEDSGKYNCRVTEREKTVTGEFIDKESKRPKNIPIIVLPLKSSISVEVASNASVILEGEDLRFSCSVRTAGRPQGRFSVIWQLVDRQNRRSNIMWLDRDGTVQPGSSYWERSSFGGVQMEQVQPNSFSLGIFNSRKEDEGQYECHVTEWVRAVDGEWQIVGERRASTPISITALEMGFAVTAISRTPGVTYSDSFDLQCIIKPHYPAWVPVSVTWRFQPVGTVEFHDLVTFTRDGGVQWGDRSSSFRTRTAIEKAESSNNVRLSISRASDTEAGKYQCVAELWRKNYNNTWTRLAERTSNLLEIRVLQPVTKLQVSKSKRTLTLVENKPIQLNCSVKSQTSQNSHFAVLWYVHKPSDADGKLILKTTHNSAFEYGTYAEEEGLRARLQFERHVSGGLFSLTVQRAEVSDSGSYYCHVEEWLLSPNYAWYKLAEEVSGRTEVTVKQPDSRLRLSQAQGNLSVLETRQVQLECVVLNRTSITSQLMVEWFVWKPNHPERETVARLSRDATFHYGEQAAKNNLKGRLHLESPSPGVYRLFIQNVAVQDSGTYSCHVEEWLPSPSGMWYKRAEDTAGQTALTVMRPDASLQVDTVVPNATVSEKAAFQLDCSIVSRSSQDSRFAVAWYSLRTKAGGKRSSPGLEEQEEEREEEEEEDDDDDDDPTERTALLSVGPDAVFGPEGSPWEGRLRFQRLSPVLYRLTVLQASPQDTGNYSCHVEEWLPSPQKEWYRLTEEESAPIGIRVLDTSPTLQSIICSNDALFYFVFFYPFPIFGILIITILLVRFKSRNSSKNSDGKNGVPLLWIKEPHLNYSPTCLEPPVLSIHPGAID
UniProt Q9H0C8: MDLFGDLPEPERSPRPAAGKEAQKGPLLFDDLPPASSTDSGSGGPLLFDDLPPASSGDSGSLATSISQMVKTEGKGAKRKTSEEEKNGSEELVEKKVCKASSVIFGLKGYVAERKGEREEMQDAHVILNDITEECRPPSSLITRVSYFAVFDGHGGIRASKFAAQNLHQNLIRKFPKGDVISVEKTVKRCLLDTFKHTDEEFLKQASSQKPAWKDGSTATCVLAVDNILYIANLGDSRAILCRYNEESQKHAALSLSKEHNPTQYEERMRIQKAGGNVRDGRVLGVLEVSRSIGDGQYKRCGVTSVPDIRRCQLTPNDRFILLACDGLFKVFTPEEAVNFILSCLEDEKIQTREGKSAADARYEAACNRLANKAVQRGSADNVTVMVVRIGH
UniProt Q7Z6Z7, whole entry, looked up: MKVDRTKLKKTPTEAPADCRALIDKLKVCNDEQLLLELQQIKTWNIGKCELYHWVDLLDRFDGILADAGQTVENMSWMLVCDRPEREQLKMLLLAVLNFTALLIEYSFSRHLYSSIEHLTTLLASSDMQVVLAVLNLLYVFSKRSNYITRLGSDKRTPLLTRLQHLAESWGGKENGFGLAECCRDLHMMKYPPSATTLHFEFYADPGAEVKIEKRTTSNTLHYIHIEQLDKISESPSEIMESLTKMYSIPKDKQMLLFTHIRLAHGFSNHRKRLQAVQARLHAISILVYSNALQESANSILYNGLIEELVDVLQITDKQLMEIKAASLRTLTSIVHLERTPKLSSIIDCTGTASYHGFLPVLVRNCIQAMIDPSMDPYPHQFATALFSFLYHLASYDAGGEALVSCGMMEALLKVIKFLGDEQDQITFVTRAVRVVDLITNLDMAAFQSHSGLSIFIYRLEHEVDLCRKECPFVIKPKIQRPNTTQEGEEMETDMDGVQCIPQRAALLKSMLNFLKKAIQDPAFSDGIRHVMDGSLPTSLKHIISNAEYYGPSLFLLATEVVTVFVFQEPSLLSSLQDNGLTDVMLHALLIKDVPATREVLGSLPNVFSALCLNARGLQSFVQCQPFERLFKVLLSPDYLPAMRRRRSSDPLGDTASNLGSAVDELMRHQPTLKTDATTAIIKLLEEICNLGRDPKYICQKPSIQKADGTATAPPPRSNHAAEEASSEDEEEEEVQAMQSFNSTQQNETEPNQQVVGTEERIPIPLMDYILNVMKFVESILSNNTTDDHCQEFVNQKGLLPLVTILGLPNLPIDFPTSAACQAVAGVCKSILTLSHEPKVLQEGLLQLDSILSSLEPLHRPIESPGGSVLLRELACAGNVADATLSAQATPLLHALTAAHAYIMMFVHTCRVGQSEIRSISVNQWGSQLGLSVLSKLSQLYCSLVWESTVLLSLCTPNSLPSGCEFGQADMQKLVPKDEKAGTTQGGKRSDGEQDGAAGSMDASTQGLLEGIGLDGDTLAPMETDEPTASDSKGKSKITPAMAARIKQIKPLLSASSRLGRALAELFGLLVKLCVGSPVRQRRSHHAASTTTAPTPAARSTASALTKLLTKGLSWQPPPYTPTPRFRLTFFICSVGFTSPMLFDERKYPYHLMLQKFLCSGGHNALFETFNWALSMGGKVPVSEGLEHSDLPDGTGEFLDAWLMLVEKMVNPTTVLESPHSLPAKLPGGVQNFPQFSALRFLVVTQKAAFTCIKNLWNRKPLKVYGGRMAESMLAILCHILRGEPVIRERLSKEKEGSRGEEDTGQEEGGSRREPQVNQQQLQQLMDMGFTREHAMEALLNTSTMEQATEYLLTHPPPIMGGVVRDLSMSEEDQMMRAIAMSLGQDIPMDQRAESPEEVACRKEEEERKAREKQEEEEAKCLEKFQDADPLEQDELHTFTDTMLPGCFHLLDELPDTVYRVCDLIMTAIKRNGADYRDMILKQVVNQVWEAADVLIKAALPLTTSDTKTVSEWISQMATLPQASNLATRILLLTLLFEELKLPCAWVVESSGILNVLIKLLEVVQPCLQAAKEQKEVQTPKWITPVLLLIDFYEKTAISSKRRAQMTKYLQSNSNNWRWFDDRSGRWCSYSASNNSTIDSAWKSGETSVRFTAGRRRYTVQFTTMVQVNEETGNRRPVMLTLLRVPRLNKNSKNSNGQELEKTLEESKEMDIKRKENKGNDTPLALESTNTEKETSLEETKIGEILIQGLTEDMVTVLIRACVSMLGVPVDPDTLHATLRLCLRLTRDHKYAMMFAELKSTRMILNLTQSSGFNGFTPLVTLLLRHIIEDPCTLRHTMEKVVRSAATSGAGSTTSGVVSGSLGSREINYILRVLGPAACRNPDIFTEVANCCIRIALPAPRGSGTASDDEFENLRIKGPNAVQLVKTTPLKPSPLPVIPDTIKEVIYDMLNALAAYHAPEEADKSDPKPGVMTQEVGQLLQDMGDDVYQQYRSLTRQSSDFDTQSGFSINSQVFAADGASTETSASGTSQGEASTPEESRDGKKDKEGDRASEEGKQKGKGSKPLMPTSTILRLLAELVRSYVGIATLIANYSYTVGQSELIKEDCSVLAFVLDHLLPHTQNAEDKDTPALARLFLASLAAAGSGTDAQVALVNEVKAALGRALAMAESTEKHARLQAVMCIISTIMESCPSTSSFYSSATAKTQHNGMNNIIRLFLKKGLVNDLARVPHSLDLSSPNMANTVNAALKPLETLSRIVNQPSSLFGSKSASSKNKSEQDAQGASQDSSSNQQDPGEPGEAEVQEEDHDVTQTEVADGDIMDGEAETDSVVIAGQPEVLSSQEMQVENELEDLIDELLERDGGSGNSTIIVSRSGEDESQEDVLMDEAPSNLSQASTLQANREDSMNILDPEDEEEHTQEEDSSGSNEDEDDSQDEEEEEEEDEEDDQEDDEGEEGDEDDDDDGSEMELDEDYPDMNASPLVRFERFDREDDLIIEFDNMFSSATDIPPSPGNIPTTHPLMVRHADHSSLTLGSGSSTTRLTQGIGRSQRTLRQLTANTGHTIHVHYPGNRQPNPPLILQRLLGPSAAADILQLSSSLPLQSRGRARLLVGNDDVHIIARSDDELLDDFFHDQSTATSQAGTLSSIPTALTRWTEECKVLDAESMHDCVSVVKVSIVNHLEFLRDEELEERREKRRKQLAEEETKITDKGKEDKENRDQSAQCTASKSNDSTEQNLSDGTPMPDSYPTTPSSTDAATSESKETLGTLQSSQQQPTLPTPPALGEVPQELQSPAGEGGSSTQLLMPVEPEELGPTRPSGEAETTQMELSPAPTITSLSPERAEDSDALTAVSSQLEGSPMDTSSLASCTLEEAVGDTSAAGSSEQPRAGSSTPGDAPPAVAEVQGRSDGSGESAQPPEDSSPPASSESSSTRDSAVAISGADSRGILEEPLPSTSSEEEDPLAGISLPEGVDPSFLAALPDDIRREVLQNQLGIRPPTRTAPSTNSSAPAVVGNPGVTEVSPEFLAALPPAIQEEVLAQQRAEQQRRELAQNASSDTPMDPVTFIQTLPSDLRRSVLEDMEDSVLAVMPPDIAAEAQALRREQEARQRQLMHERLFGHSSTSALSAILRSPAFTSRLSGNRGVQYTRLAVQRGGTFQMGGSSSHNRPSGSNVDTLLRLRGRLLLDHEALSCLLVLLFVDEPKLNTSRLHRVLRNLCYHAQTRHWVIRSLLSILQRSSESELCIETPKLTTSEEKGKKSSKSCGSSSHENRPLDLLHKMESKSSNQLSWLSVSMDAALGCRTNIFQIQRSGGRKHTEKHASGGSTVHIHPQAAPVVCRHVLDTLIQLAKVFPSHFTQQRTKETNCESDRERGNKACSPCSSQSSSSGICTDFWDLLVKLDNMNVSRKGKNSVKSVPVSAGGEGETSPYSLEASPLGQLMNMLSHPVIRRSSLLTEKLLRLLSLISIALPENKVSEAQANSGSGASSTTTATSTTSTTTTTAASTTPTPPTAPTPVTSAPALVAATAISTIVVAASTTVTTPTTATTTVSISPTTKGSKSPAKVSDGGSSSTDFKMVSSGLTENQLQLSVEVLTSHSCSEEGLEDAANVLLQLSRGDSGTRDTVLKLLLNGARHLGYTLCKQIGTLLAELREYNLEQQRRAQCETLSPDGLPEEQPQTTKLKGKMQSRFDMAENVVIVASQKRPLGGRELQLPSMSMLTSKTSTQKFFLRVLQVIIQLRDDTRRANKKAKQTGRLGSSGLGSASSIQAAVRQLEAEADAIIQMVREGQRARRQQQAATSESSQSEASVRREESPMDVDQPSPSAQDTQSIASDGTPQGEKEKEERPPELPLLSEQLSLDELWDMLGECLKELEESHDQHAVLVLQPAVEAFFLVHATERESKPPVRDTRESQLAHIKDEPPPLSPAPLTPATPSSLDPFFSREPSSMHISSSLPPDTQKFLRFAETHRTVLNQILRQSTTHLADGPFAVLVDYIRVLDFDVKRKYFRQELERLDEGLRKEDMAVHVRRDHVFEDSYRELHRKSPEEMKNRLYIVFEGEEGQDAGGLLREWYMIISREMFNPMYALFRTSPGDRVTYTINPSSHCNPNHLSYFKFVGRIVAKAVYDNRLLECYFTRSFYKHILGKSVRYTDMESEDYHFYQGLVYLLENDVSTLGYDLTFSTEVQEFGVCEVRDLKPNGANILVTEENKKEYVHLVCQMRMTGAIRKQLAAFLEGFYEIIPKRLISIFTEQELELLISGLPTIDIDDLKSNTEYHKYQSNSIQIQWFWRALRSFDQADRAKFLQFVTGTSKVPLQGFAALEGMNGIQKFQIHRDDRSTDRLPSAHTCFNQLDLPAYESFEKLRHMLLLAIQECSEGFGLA
UniProt Q5T440: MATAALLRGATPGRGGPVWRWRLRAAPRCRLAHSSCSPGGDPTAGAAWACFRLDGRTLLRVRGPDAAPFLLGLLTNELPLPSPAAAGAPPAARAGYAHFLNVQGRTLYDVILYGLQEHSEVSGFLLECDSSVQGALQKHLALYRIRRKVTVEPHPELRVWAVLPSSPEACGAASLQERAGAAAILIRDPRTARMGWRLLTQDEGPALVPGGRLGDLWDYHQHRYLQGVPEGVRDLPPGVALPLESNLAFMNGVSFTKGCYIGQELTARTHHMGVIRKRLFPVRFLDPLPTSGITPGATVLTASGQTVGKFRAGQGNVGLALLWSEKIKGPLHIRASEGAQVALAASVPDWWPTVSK
UniProt Q9NX55: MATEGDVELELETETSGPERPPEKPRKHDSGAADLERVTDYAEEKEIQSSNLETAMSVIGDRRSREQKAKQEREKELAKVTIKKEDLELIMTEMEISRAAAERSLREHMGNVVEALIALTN
UniProt Q01628, whole entry, looked up: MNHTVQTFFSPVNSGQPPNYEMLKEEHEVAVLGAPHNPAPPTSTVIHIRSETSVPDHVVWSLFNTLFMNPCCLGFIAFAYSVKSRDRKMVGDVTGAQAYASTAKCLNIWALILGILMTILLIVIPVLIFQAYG

Compound in this assay: NCC(=O)Nc1ccc(-n2nc(C(F)(F)F)cc2-c2ccc3c(ccc4ccccc43)c2)cc1
Description: log2 fold change, soluble protein after heating vs DMSO (PISA); higher = thermal stabilisation; K562 lysate, 10 uM; active = over 0.2 and 3.5 SD of the protein, either way, in both replicates (recomputed). The method, boiled down:
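Quantification was by TMTpro 16plex LC-MS/MS with equalised channel sums, applied to the supernatant after 21,000xg for 90 min. Samples were crude K562 extract at 1 mg/mL protein in PBS pH 7.4 with 1 mM MgCl2, treated with 10 μM compound for 30 min, heated for 3 min across 48°C-58°C, pooled and brought to 0.5% NP-40 at 4°C. Values are log-two fold changes in thermal stability relative to solvent controls, from duplicates.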
As for IDH3A (UniProt P50213), the log2 fold change was inactive: -0.023.

With IGSF3 (UniProt O75054), the log2 fold change was inactive: 0.001.

For the target ILKAP (UniProt Q9H0C8), the log2 fold change was inactive: -0.05.

Turning to ICAM1 (UniProt P05362), the log2 fold change was inactive: 0.022.

Consider IDH3B (UniProt O43837), for which the log2 fold change is inactive: 0.034.

As to IGSF8 (UniProt Q969P0), the log2 fold change is inactive: 0.084.

For the target ILVBL (UniProt A1L0T0), the log2 fold change was inactive: 0.033.

Take IDE, A0A3B3ISG5: the log2 fold change is inactive: 0.008.

For the target ILF2 (UniProt Q12905), the log2 fold change is inactive: 0.007.

As to HTATIP2 isoform 3 (UniProt Q9BUP3), the log2 fold change was inactive: 0.023.

Consider IGF2BP1 (UniProt Q9NZI8), for which the log2 fold change was inactive: 0.029.

As to HYOU1 (UniProt J3QL06), the log2 fold change is inactive: 0.108.

With IMPA1 isoform 3 (UniProt P29218), the log2 fold change was inactive: 0.011.

In the case of IDH1 (UniProt O75874), the log2 fold change was inactive: 0.032.

With HUWE1 (UniProt Q7Z6Z7), the log2 fold change is inactive: 0.011.

On to HSPA8 (UniProt P11142), for which the log2 fold change was inactive: -0.008.

Regarding IL10RB (UniProt Q08334), the log2 fold change is inactive: -0.015.

Regarding IDH3G (UniProt P51553), the log2 fold change is inactive: -0.069.

On to ICAM5 (UniProt Q9UMF0), for which the log2 fold change was inactive: -0.013.

Consider IBA57 (UniProt Q5T440), for which the log2 fold change is inactive: 0.027.

For the target IGBP1 (UniProt P78318), the log2 fold change was inactive: -0.009.

For IFI30 (UniProt P13284), the log2 fold change is inactive: 0.008.

As to HYPK (UniProt Q9NX55), the log2 fold change is inactive: -0.009.

IFITM3 (UniProt Q01628): the log2 fold change is inactive: -0.02.
